At least one peptide structure holds a part that was inferred or is arguable (an end, a ring closure or a residue). Square brackets hold non-standard residues; d marks the D form. Peptide text beside a SMILES is read from it. Orn = NCCC[C@H](N)C(=O)O
Experiments:
[1] = test system: antibody production inhibited by cyclophosphamide; test: Effect on antibody production in mice treated with cyclophosphamide; format: in vivo, CELP mice; details: cyclophosphamide 100 mg/kg i.p., titer on 6th day
Protocol: The effect on in vivo antibody production is tested on CELP mice treated with a 100 mg/kg body weight dose of cyclophosphamide {2-[bis-(2-chloroethyl)-amino]-tetrahydro-2H-1,3,2-oxaza -phosphorine-2-oxide; method: Z. Naturforsch. 35B, 1476 (1980)}. The mice are intraperitoneally immunized with a 1% sheep erythrocyte suspension previously washed three times with a 0.9% sodium chloride solution after 10 minutes of centrifuging at 2,500 r.p.m. Simultaneously with immunization carried out on the 0. day, the activity of the immune system is suppressed by means of treatment with a 100 mg/kg i.p. does of cyclophosphamide. On the 3rd day of the test the peptides are administered to the animals intraperitoneally in a dose of 5, 50 and occasionally 100 mg/kg respectively. On the 6th day of the test blood is taken retroorbitally from the mice and the anti-sheep erythrocyte titer of the serum is determined. […] The effect of the peptides is expressed as percentage of the relief of inhibition (G %).

[2] = test system: lymphocytes inhibited by Azathioprine; test: E-rosetta test inhibited by Azathioprine; format: cell-based
Protocol: Inhibition of the proliferation of T-lymphocytes is tested in the E-rosetta test inhibited by Azathioprine [6-(1-methyl-4-nitroimidazole-5-yl-thio)-purine; Thymus 1, 195 (1980)].
To 200 μl of a healthy lymphocyte cell-suspension 500 μl/ml of Azathioprine and 200 μl of a separate dilution of the test compound in HBBS buffer (manufacturer: Flow, Great Britain) are added (concentration range: 10^-3 to […]). The mixture is incubated at a temperature of 37° C. in air containing 5% of carbon dioxide for 60 minutes, whereupon 200 μl of a 1% sheep erythrocyte suspension are added. The mixture thus-obtained is centrifuged at 1,000 r.p.m. for 5 minutes, the supernatant is removed by decanting and in the suspension the lymphocytes forming E-rosetta are counted under a microscope from at least 400 cells.
Under the effect of the peptides the E-rosetta forming activity of the lymphocytes inhibited by Azathioprine increases to different extent. […] It appears from the data of Table 2 that the tested peptides increase the E-rosetta forming capacity of inhibited lymphocytes, i.e. the peptides of the present invention show immunostimulant effect.

[3] = test system: human K-562 erythroleukaemical cell-line; test: Inhibition of the proliferation of tumor cells (K-562); format: cell-based; details: 72nd hour after treatment, percentage of the control
Protocol: In the test human K-562 erythroleukaemical cell-line is used (Karolinska Institute, Stockholm). Incubation is carried out in a nutrient medium designated RPMI-1640 (manufactured by Flow, Great Britain) comprising 10% of foetal calf serum, at a temperature of 37° C., in a humidified incubator containing 3% of carbon dioxide, in plastic dishes. Every point of measurement corresponds to the average of the data measured in three dishes, each. At the beginning of the test the dilution amounts to 0.5×10^5 cells/ml. Treatment is carried out 24 hours after dilution in a manner that the medium is not changed after the treatment. The cells are counted for 96 hours after dilution every 24th hour wit the aid of a Buerker chamber.
Under the effect of the peptide in the 24th hour after treatment the cell number stagnates and later it increases to a very small extent. […] The tumor-cell division inhibiting effect of the new peptides is summarized in Table 1 (72 hours after treatment). The rate of inhibition is expressed in the percentage of the control. It clearly appears from the data of the Table that the tested peptides inhibit the proliferation of human K-562 erythroleukaemic cells.

[4] = test system: inflammation induced by oxozolone; test: Dermatitis test induced with oxazolone; format: in vivo, CFLP mice; details: 24th hour after treatment, ear weight increase
Protocol: In this test a modified pharmacological model of D. P. Evans et al. [Br. J. Pharmac. 43, 403-488 (1971)] is used.
The abdominal skin of male CFLP mice weighing 20-22 g is painted after the removal of the hair with 0.1 ml of a 2% solution of oxazolon (4-ethoxymethyl-2-phenyl-oxazoline, manufacturer Sigma) in sunflower oil. On the right ear of the test animals 7 days after sensitization (painting) inflammatory reaction is induced with the aid of 10 μl of a 2% acetonous oxazolone solution and simultaneously the animals are treated with a 1 or 2 mg/kg, respectively, i.p. does of the test compound. The test compound is dissolved in a physiological sodium chloride solution in such a concentration that the active ingredient content corresponding to the dose should be dissolved in a volume of 0.5 ml/10 g animal body weight.
The antiinflammatory effect is determined as follows: the animals are sacrificed in the 24th hour after treatment, whereupon the right and left ears are cut off. The percentual weight increase of the right ear related to the left ear is characteristic of the rate of inflammation induced during the test, while the percentual reduction of weight increase of the treated animals related to the untreated control is proportional to the antiinflammatory effect. […]

[5] = peptide 100 mg/kg i.p. on 3rd day
[6] = peptide 50 mg/kg i.p. on 3rd day
[7] = peptide 5 mg/kg i.p. on 3rd day

Compound	Restoration of primary immune answer, G % [1, 5] [%]	Relief of inhibition (R %) of E-rosetta forming activity ([2]; peptide 10^-3 mole/l) [%]	Relief of inhibition (R %) of E-rosetta forming activity ([2]; peptide 10^-5 mole/l) [%]	Relief of inhibition (R %) of E-rosetta forming activity ([2]; peptide 10^-7 mole/l) [%]	Relief of inhibition (R %) of E-rosetta forming activity ([2]; peptide 10^-9 mole/l) [%]	Relief of inhibition (R %) of E-rosetta forming activity ([2]; peptide 10^-11 mole/l) [%]	Inhibition of the proliferation of K-562 cells, inhibition (c %) ([3]; peptide 1/ug/ml) [%]	Inhibition of the proliferation of K-562 cells, inhibition (c %) ([3]; peptide 10/ug/ml) [%]	Restoration of primary immune answer, G % [1, 6] [%]	Restoration of primary immune answer, G % [1, 7] [%]	Inhibition of inflammation induced by oxozolone, inhibition as % of control ([4]; 1 mg/kg i.p.) [%]	Inhibition of inflammation induced by oxozolone, inhibition as % of control ([4]; 2 mg/kg i.p.) [%]
N=C(N)NCCC[C@H](N)C(=O)N[C@@H](CCCCN)C(=O)N[C@@H](CCC(N)=O)C(=O)O [Peptide 6, Arg-Lys-Gln-OH] (H-Arg-Lys-Gln-OH)	14.8	26.2	27.4	27.0	26.3	34.5	25	30	–	–	–	–
CC(C)[C@H](NC(=O)[C@H](CC(=O)O)NC(=O)[C@H](CCCN)NC(=O)[C@@H](N)CCCNC(=N)N)C(N)=O [Peptide 8, Arg-Orn-Asp-Val-NH2] (H-R[Orn]DV-NH2)	–	36.7	33.5	22.0	34.4	24.5	35	51	28.0	–	–	–
CC(C)[C@H](NC(=O)[C@H](CC(=O)O)NC(=O)[C@H](CCCN)NC(=O)[C@@H](N)CCCNC(=N)N)C(=O)O [Peptide 9, Arg-Orn-Asp-Val-OH] (H-R[Orn]DV-OH)	23.8	21.9	18.9	17.8	21.3	23.8	35	54	–	–	–	–
CC(C)C[C@H](NC(=O)[C@@H](N)CCCCN)C(=O)N[C@@H](CCCCN)C(=O)N[C@@H](CCCCN)C(=O)O [Peptide 11, Lys-Leu-Lys-Lys-OH] (H-KLKK-OH)	–	35.8	36.8	28.8	33.6	45.1	65	70	80.7	38.4	30	41
CC(C)C[C@H](NC(=O)[C@H](CC(=O)O)NC(=O)[C@@H](N)CCCCN)C(=O)N[C@@H](CCCCN)C(=O)O [Peptide 12, Lys-Asp-Leu-Lys-OH] (H-KDLK-OH)	–	13.7	21.9	16.5	8.9	8.6	40	55	53.8	38.4	–	–

Source: patent US5041535A, “Antileukemic and immunostimulant peptides” (Richter Gedeon Vegyeszeti Gyar Rt., priority 1986, dated 1991)
